# Measurements reported in patent publication EP0323590A2, “Carbazoyl derivatives” (ONO PHARMACEUTICAL CO., LTD., priority 1987, dated 1989).
# Counter-ions that a name gives are not always drawn. For at least one compound, name, drawing or mass did not settle the structure.
# System: Maillard reaction
# Experiment: Inhibitory effect on Maillard reaction in vitro (BSA + glucose incubation, fluorescence)
# Type: biochemical
# Conditions: 6mM test compound, 100 mg/ml bovine serum albumin (BSA), 200 mM glucose, 0.5 M phosphatic buffer pH 7.38, a week at 37°C; fluorescence excitation 360nm, emission 450 nm
# Experimental: In order to evaluate the inhibitory effect on Maillard reaction in vitro, of the compounds in the present invention, the measurement was carried out under conditions described below.
# After incubation, the incubated medium was diluted 100 times with the same phosphatic buffer solution, and the fluorescence spectrum was measured at the excitation maximum of 360nm and the emission maximum of 450 nm.
# Inhibition percentage of the test compounds was calculated by the following equation: [formula] ΔI₁ : fluorescence of test compounds ΔI₂ : fluorescence of (test compounds + glucose), ΔI₃ : fluorescence of (test compounds + BSA), ΔI₄ : fluorescence of (test compounds + BSA + glucose), ΔI : fluorescence of (BSA + glucose)
structure (smiles),measurement,value
"CCCCCCCCNC(=O)NN [1(l), n-octylsemicarbazide hydrochloride]",Inhibitory effect (%) (6mM),100%
